These are yes or no findings as the source states them, for the method shown. In cells and extracts the contact can be indirect. Some results given as binding are weak or reduced against the parent protein; the word gives no strength.
Columns and labels:
[1] = molecular target: endogenous MDM2 (human (endogenous in HepG2)), Q00987; assay: co-IP; endogenous proteins in HepG2 lysate, cells untreated or treated with arsenite (20 μM); immunoprecipitation (anti-p53, anti-Ets-1 or control IgG for p53/Ets-1 and DAPK1); conditions: remark: other sources report otherwise
HA-MDM2, Q00987 = assay: co-IP; HepG2 cells transfected with HA-MDM2 or control vector; lysate immunoprecipitated with anti-HA antibody, blotted for endogenous IKKβ and IKKα; also with p65 siRNA or control siRNA (Fig. 5g); conditions: remark: other sources report otherwise
HA-MDM2 = HA-MDM2 (UniProt Q00987); assay: co-IP; HepG2 cells transfected with combinations of plasmids for wild type MDM2, IKKβ or their mutants; reciprocal immunoprecipitations

Chains of the proteins cited; added tags and fusions are not shown.
UniProt Q00987: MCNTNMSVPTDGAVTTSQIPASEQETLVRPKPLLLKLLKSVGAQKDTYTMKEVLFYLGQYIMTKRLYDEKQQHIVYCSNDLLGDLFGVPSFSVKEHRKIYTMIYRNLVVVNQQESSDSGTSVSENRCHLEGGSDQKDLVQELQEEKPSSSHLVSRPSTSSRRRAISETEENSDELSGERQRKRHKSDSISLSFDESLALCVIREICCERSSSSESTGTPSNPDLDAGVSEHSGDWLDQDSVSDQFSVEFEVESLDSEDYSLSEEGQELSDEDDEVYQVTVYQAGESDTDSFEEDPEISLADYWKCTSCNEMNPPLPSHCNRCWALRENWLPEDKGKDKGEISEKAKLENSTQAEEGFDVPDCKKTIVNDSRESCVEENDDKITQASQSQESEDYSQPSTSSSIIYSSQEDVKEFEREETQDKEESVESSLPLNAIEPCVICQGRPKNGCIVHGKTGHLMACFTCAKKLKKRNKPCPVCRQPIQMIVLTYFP

B1: endogenous IKKβ, O14920 1-756 (protein)
chain: MSWSPSLTTQTCGAWEMKERLGTGGFGNVIRWHNQETGEQIAIKQCRQELSPRNRERWCLEIQIMRRLTHPNVVAARDVPEGMQNLAPNDLPLLAMEYCQGGDLRKYLNQFENCCGLREGAILTLLSDIASALRYLHENRIIHRDLKPENIVLQQGEQRLIHKIIDLGYAKELDQGSLCTSFVGTLQYLAPELLEQQKYTVTVDYWSFGTLAFECITGFRPFLPNWQPVQWHSKVRQKSEVDIVVSEDLNGTVKFSSSLPYPNNLNSVLAERLEKWLQLMLMWHPRQRGTDPTYGPNGCFKALDDILNLKLVHILNMVTGTIHTYPVTEDESLQSLKARIQQDTGIPEEDQELLQEAGLALIPDKPATQCISDGKLNEGHTLDMDLVFLFDNSKITYETQISPRPQPESVSCILQEPKRNLAFFQLRKVWGQVWHSIQTLKEDCNRLQQGQRAAMMNLLRNNSCLSKMKNSMASMSQQLKAKLDFFKTSIQIDLEKYSEQTEFGITSDKLLLAWREMEQAVELCGRENEVKLLVERMMALQTDIVDLQRSPMGRKQGGTLDDLEEQARELYRRLREKPRDQRTEGDSQEMVRLLLQAIQSFEKKVRVIYTQLSKTVVCKQKALELLPKVEEVVSLMNEDEKTVVRLQEKRQKELWNLLKIACSKVRGPVSGSPDSMNASRLSQPGQLMSQPSTASNSLPEPAKKSEELVAEAHNLCTLLENAIQDTVREQDQSFTALDWSWLQTEEEEHSCLEQAS
binding [1]: binds
binding (HA-MDM2, Q00987): binds

B2: IKKβΔ239–246 (protein, UniProt O14920)
chain: MSWSPSLTTQTCGAWEMKERLGTGGFGNVIRWHNQETGEQIAIKQCRQELSPRNRERWCLEIQIMRRLTHPNVVAARDVPEGMQNLAPNDLPLLAMEYCQGGDLRKYLNQFENCCGLREGAILTLLSDIASALRYLHENRIIHRDLKPENIVLQQGEQRLIHKIIDLGYAKELDQGSLCTSFVGTLQYLAPELLEQQKYTVTVDYWSFGTLAFECITGFRPFLPNWQPVQWHSKVRQKEDLNGTVKFSSSLPYPNNLNSVLAERLEKWLQLMLMWHPRQRGTDPTYGPNGCFKALDDILNLKLVHILNMVTGTIHTYPVTEDESLQSLKARIQQDTGIPEEDQELLQEAGLALIPDKPATQCISDGKLNEGHTLDMDLVFLFDNSKITYETQISPRPQPESVSCILQEPKRNLAFFQLRKVWGQVWHSIQTLKEDCNRLQQGQRAAMMNLLRNNSCLSKMKNSMASMSQQLKAKLDFFKTSIQIDLEKYSEQTEFGITSDKLLLAWREMEQAVELCGRENEVKLLVERMMALQTDIVDLQRSPMGRKQGGTLDDLEEQARELYRRLREKPRDQRTEGDSQEMVRLLLQAIQSFEKKVRVIYTQLSKTVVCKQKALELLPKVEEVVSLMNEDEKTVVRLQEKRQKELWNLLKIACSKVRGPVSGSPDSMNASRLSQPGQLMSQPSTASNSLPEPAKKSEELVAEAHNLCTLLENAIQDTVREQDQSFTALDWSWLQTEEEEHSCLEQAS
binding (HA-MDM2): binds

B3: IKKβΔ294–302 (protein, UniProt O14920)
chain: MSWSPSLTTQTCGAWEMKERLGTGGFGNVIRWHNQETGEQIAIKQCRQELSPRNRERWCLEIQIMRRLTHPNVVAARDVPEGMQNLAPNDLPLLAMEYCQGGDLRKYLNQFENCCGLREGAILTLLSDIASALRYLHENRIIHRDLKPENIVLQQGEQRLIHKIIDLGYAKELDQGSLCTSFVGTLQYLAPELLEQQKYTVTVDYWSFGTLAFECITGFRPFLPNWQPVQWHSKVRQKSEVDIVVSEDLNGTVKFSSSLPYPNNLNSVLAERLEKWLQLMLMWHPRQRGTDPTLDDILNLKLVHILNMVTGTIHTYPVTEDESLQSLKARIQQDTGIPEEDQELLQEAGLALIPDKPATQCISDGKLNEGHTLDMDLVFLFDNSKITYETQISPRPQPESVSCILQEPKRNLAFFQLRKVWGQVWHSIQTLKEDCNRLQQGQRAAMMNLLRNNSCLSKMKNSMASMSQQLKAKLDFFKTSIQIDLEKYSEQTEFGITSDKLLLAWREMEQAVELCGRENEVKLLVERMMALQTDIVDLQRSPMGRKQGGTLDDLEEQARELYRRLREKPRDQRTEGDSQEMVRLLLQAIQSFEKKVRVIYTQLSKTVVCKQKALELLPKVEEVVSLMNEDEKTVVRLQEKRQKELWNLLKIACSKVRGPVSGSPDSMNASRLSQPGQLMSQPSTASNSLPEPAKKSEELVAEAHNLCTLLENAIQDTVREQDQSFTALDWSWLQTEEEEHSCLEQAS
binding (HA-MDM2): binds
